Test results as given in the supplement of paper PMC8728848.
The list shows a part of the results.

Key:
Experiment in all cases: glycan array binding signal (z-score within array); higher = stronger binding
Settings in all cases: glycan notation: IUPAC condensed, linker removed
Fuc(a1-2)Gal = molecular target: Fuc(a1-2)Gal
Method in brief: (§1)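 Glycan array binding is given as a within-array Z-score, which can be read as non-binding when negative. The arrays, 3228 of them, came from the Consortium for Functional Glycomics database and were retained only where the protein sequence was available. Z-scores were averaged across arrays of the same protein sequence at different concentrations or buffers and across linkers.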

Fuc(a1-2)Gal(b1-3)GalNAc = molecular target: Fuc(a1-2)Gal(b1-3)GalNAc
Method in brief: as §1

[1] = molecular target: Fuc(a1-2)Gal(b1-3)GalNAc(a1-3)[Fuc(a1-2)]Gal(b1-4)Glc
Method in brief: as §1

[2] = molecular target: Fuc(a1-2)Gal(b1-3)GalNAc(a1-3)[Fuc(a1-2)]Gal(b1-4)GlcNAc
Method in brief: as §1

[3] = molecular target: Fuc(a1-2)Gal(b1-3)GalNAc(b1-3)Gal
Method in brief: as §1

[4] = molecular target: Fuc(a1-2)Gal(b1-3)GalNAc(b1-3)Gal(a1-4)Gal(b1-4)Glc
Method in brief: as §1

[5] = molecular target: Fuc(a1-2)Gal(b1-3)GalNAc(b1-4)[Neu5Ac(a2-3)]Gal(b1-4)Glc
Method in brief: as §1

Fuc(a1-2)Gal(b1-3)GlcNAc = molecular target: Fuc(a1-2)Gal(b1-3)GlcNAc
Method in brief: as §1

[6] = molecular target: Fuc(a1-2)Gal(b1-3)GlcNAc(b1-2)Man(a1-3)[Fuc(a1-2)Gal(b1-3)GlcNAc(b1-2)Man(a1-6)]Man(b1-4)GlcNAc(b1-4)GlcNAc
Method in brief: as §1

[7] = molecular target: Fuc(a1-2)Gal(b1-3)GlcNAc(b1-2)Man(a1-3)[Fuc(a1-2)Gal(b1-3)GlcNAc(b1-2)Man(a1-6)]Man(b1-4)GlcNAc(b1-4)[Fuc(a1-6)]GlcNAc
Method in brief: as §1

[8] = molecular target: Fuc(a1-2)Gal(b1-3)GlcNAc(b1-3)Gal(b1-4)Glc
Method in brief: as §1

[9] = molecular target: Fuc(a1-2)Gal(b1-3)GlcNAc(b1-3)GalNAc
Method in brief: as §1

[10] = molecular target: Fuc(a1-2)Gal(b1-3)GlcNAc(b1-3)[Fuc(a1-2)Gal(b1-3)GlcNAc(b1-6)]GalNAc
Method in brief: as §1

[11] = molecular target: Fuc(a1-2)Gal(b1-3)GlcNAc(b1-3)[Gal(b1-4)GlcNAc(b1-6)]Gal(b1-4)Glc
Method in brief: as §1

[12] = molecular target: Fuc(a1-2)Gal(b1-3)GlcNAc(b1-3)[Neu5Ac(a2-6)Gal(b1-4)GlcNAc(b1-6)]Gal(b1-4)Glc
Method in brief: as §1

[13] = molecular target: Fuc(a1-2)Gal(b1-3)GlcNAc6S
Method in brief: as §1

[14] = molecular target: Fuc(a1-2)Gal(b1-3)[Fuc(a1-4)]GlcNAc
Method in brief: as §1

[15] = molecular target: Fuc(a1-2)Gal(b1-3)[Fuc(a1-4)]GlcNAc(b1-2)Man(a1-3)[Fuc(a1-2)Gal(b1-3)[Fuc(a1-4)]GlcNAc(b1-2)Man(a1-3)]Man(b1-4)GlcNAc(b1-4)GlcNAc
Method in brief: as §1

[16] = molecular target: Fuc(a1-2)Gal(b1-3)[Fuc(a1-4)]GlcNAc(b1-2)Man(a1-3)[Fuc(a1-2)Gal(b1-3)[Fuc(a1-4)]GlcNAc(b1-2)Man(a1-6)]Man(b1-4)GlcNAc(b1-4)[Fuc(a1-6)]GlcNAc(b1-4)[Fuc(a1-6)]GlcNAc
Method in brief: as §1

[17] = molecular target: Fuc(a1-2)Gal(b1-3)[Fuc(a1-4)]GlcNAc(b1-3)[Fuc(a1-3)[Gal(b1-4)]GlcNAc(b1-6)]Gal(b1-4)Glc
Method in brief: as §1

[18] = molecular target: Fuc(a1-2)Gal(b1-3)[Fuc(a1-4)]GlcNAc(b1-3)[Gal(b1-4)GlcNAc(b1-6)]Gal(b1-4)Glc
Method in brief: as §1

Fuc(a1-2)Gal(b1-4)Glc = molecular target: Fuc(a1-2)Gal(b1-4)Glc
Method in brief: as §1

Fuc(a1-2)Gal(b1-4)Glc6S = molecular target: Fuc(a1-2)Gal(b1-4)Glc6S
Method in brief: as §1

Fuc(a1-2)Gal(b1-4)GlcNAc = molecular target: Fuc(a1-2)Gal(b1-4)GlcNAc
Method in brief: as §1

[19] = molecular target: Fuc(a1-2)Gal(b1-4)GlcNAc(b1-2)Man
Method in brief: as §1

[20] = molecular target: Fuc(a1-2)Gal(b1-4)GlcNAc(b1-2)Man(a1-3)[Fuc(a1-2)Gal(b1-4)GlcNAc(b1-2)Man(a1-6)]Man(b1-4)GlcNAc(b1-4)GlcNAc
Method in brief: as §1

[21] = molecular target: Fuc(a1-2)Gal(b1-4)GlcNAc(b1-2)Man(a1-3)[Fuc(a1-2)Gal(b1-4)GlcNAc(b1-2)Man(a1-6)]Man(b1-4)GlcNAc(b1-4)[Fuc(a1-6)]GlcNAc
Method in brief: as §1

[22] = molecular target: Fuc(a1-2)Gal(b1-4)GlcNAc(b1-2)[Fuc(a1-2)Gal(b1-4)GlcNAc(b1-4)]Man(a1-3)[Fuc(a1-2)Gal(b1-4)GlcNAc(b1-2)Man(a1-6)]Man(b1-4)GlcNAc(b1-4)GlcNAc
Method in brief: as §1

[23] = molecular target: Fuc(a1-2)Gal(b1-4)GlcNAc(b1-3)Gal(b1-4)GlcNAc
Method in brief: as §1

[24] = molecular target: Fuc(a1-2)Gal(b1-4)GlcNAc(b1-3)Gal(b1-4)GlcNAc(b1-2)Man(a1-3)[Fuc(a1-2)Gal(b1-4)GlcNAc(b1-3)Gal(b1-4)GlcNAc(b1-2)Man(a1-6)]Man(b1-4)GlcNAc(b1-4)GlcNAc
Method in brief: as §1

[25] = molecular target: Fuc(a1-2)Gal(b1-4)GlcNAc(b1-3)Gal(b1-4)GlcNAc(b1-3)Gal(b1-4)GlcNAc
Method in brief: as §1

[26] = molecular target: Fuc(a1-2)Gal(b1-4)GlcNAc(b1-3)GalNAc
Method in brief: as §1

[27] = molecular target: Fuc(a1-2)Gal(b1-4)GlcNAc(b1-3)[Fuc(a1-2)Gal(b1-4)GlcNAc(b1-6)]GalNAc
Method in brief: as §1

[28] = molecular target: Fuc(a1-2)Gal(b1-4)GlcNAc(b1-3)[Fuc(a1-3)[Gal(b1-4)]GlcNAc(b1-6)]Gal(b1-4)Glc
Method in brief: as §1

[29] = molecular target: Fuc(a1-2)Gal(b1-4)GlcNAc(b1-6)GalNAc
Method in brief: as §1

[30] = molecular target: Fuc(a1-2)Gal(b1-4)GlcNAc6S
Method in brief: as §1

[31] = molecular target: Fuc(a1-2)Gal(b1-4)[Fuc(a1-3)]GlcNAc
Method in brief: as §1

[32] = molecular target: Fuc(a1-2)Gal(b1-4)[Fuc(a1-3)]GlcNAc(b1-2)Man(a1-3)[Fuc(a1-2)Gal(b1-4)[Fuc(a1-3)]GlcNAc(b1-2)Man(a1-6)]Man(b1-4)GlcNAc(b1-4)[Fuc(a1-6)]GlcNAc
Method in brief: as §1

[33] = molecular target: Fuc(a1-2)Gal(b1-4)[Fuc(a1-3)]GlcNAc(b1-2)[Fuc(a1-2)Gal(b1-4)[Fuc(a1-3)]GlcNAc(b1-4)]Man(a1-3)[Fuc(a1-2)Gal(b1-4)[Fuc(a1-3)]GlcNAc(b1-2)Man(a1-6)]Man(b1-4)GlcNAc(b1-4)GlcNAc
Method in brief: as §1

[34] = molecular target: Fuc(a1-2)Gal(b1-4)[Fuc(a1-3)]GlcNAc(b1-3)Gal(b1-4)[Fuc(a1-3)]GlcNAc
Method in brief: as §1

[35] = molecular target: Fuc(a1-2)Gal(b1-4)[Fuc(a1-3)]GlcNAc(b1-3)Gal(b1-4)[Fuc(a1-3)]GlcNAc(b1-3)Gal(b1-4)[Fuc(a1-3)]GlcNAc
Method in brief: as §1

[36] = molecular target: Fuc(a1-2)Gal(b1-4)[Fuc(a1-3)]GlcNAc(b1-3)GalNAc
Method in brief: as §1

[37] = molecular target: Fuc(a1-2)Gal(b1-4)[Fuc(a1-3)]GlcNAc(b1-3)[Neu5Ac(a2-6)Gal(b1-4)GlcNAc(b1-6)]Gal(b1-4)Glc
Method in brief: as §1

[38] = molecular target: Fuc(a1-2)Gal3S(b1-4)GlcNAc
Method in brief: as §1

[39] = molecular target: Fuc(a1-2)Gal6S(b1-3)GlcNAc
Method in brief: as §1

B1: TAL6-6LysM (Trichoderma atroviride) (protein)
chain: AASKLGVPQPAQRDQVNCQLYAVQPNDNCIDISSKNNITYAQLLSWNPSLSSTCSNLASLNSSSICVSNPKGTFSISSNTVGATDIATTTAPVPSPTLDQTTSRCAKYYQVSDGDDCSHLTAQFAITLKDFIFLNSEVWQNCTNLELGYYYCVEPVGYISTYPGYLPTATTKPFNQTSATSLPYDGDPWARFSSNSSVIPIANGTRVDCYSYVYVKNLTENLFADCWNMASMYEITREELVLWNPSLGNDGSSGSNLSGAEASQVASSIAIPTTAPSSITTNLYTYPCTVAANISYCVALVSSTGALPTNTAPPGPHASGEISNCTAWFAPEAYDTCKSILDIFEMSFANFYKMNPSVGPDCSGLAVGTNYCVSTYPNGEDPNDDWDGDDSIPSISPTGIITPTPTQSGMVSNCNKFYDVHSNDGCSAIASSQHVDLSSLYKWNPAIKTDCSGLQASVYVCIGILTTSMSTTSKLPTTTSKPSTTSKPPTGITTPTPTQSGMVKNCNKFYDVHSGDGCSAIASSQKVNLSSFYLWNPAVKTDCSGLQASVFVCIGTLTTSMSTTTSKLPTTTSKPSTTSKPPTGIITPTPTQNGMVKNCNKFYDVHSGDGCSAIASSQKVNLSSFYLWNPAVKTDCSGLQASVFVCVGTATTTTAAGITTPTPTQSGMVSGCNKFYDVHAGDGCSAIASSQKIALSSLYKWNPAVKTDCSGLQASVYICIGVGNAAAARVTGAAASFLEQKLISEEDLNSAVDHHHHHH
glycan array binding signal (z-score) (Fuc(a1-2)Gal): 0.952
glycan array binding signal (z-score) (Fuc(a1-2)Gal(b1-3)GalNAc): -0.591
glycan array binding signal (z-score) [1]: -0.209
glycan array binding signal (z-score) [2]: -1.77
glycan array binding signal (z-score) [3]: 0.073
glycan array binding signal (z-score) [4]: -0.121
glycan array binding signal (z-score) [5]: -0.588
glycan array binding signal (z-score) (Fuc(a1-2)Gal(b1-3)GlcNAc): -0.073
glycan array binding signal (z-score) [6]: -1.23
glycan array binding signal (z-score) [7]: -0.903
glycan array binding signal (z-score) [8]: -0.234
glycan array binding signal (z-score) [9]: -0.595
glycan array binding signal (z-score) [10]: 0.213
glycan array binding signal (z-score) [11]: 0.974
glycan array binding signal (z-score) [12]: -1.47
glycan array binding signal (z-score) [13]: 0.906
glycan array binding signal (z-score) [14]: -1.18
glycan array binding signal (z-score) [15]: -2.41
glycan array binding signal (z-score) [16]: 0.449
glycan array binding signal (z-score) [17]: -0.675
glycan array binding signal (z-score) [18]: -0.124
glycan array binding signal (z-score) (Fuc(a1-2)Gal(b1-4)Glc): 0.31
glycan array binding signal (z-score) (Fuc(a1-2)Gal(b1-4)Glc6S): 0.072
glycan array binding signal (z-score) (Fuc(a1-2)Gal(b1-4)GlcNAc): 1.27
glycan array binding signal (z-score) [19]: -0.377
glycan array binding signal (z-score) [20]: 0.43
glycan array binding signal (z-score) [21]: -1.15
glycan array binding signal (z-score) [22]: 0.463
glycan array binding signal (z-score) [23]: -0.314
glycan array binding signal (z-score) [24]: -1.4
glycan array binding signal (z-score) [25]: 0.084
glycan array binding signal (z-score) [26]: 0.064
glycan array binding signal (z-score) [27]: -0.205
glycan array binding signal (z-score) [28]: 0.428
glycan array binding signal (z-score) [29]: 3.12
glycan array binding signal (z-score) [30]: 0.291
glycan array binding signal (z-score) [31]: -0.196
glycan array binding signal (z-score) [32]: 0.008
glycan array binding signal (z-score) [33]: -0.207
glycan array binding signal (z-score) [34]: -0.762
glycan array binding signal (z-score) [35]: 2.68
glycan array binding signal (z-score) [36]: 1.62
glycan array binding signal (z-score) [37]: 1.82
glycan array binding signal (z-score) [38]: 0.064
glycan array binding signal (z-score) [39]: -0.396
